This is an account of results in PubChem BioAssay AID445 (National Center for Advancing Translational Sciences (NCATS), 2006).

SMILES strings stand for the structures. This is one part of the list. These are further read-outs of the screen, such as a control signal, another cell line or another target. No call is given for them. The list favours compounds with an active or inconclusive main result. Words in brackets tell the shape of the fitted curve; partial curves, single points and poor fits give uncertain potencies.

This test in a line: IkB Signaling. As to conditions: ABC-DLBCL IkBa-CBG/CBR dual luciferase ratio (green luciferase fused to IkBa over red control in OCI-Ly3 lymphoma cells), 4 h; measured here: control luc red channel unless noted. The method in brief: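 In this assay, an IκBα–CBG68 fusion accumulates when IKK-driven degradation is blocked; native CBR normalizes for cell number. OCI-Ly3 cells were treated 4 h with compound and doxycycline, then green and red light read after Chroma-Glo addition.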
Turning to `O=C(CSc1nc2ccccc2[nH]1)c1ccc2c(c1)OCO2`, the AC50 – broadly, the concentration at which the activity in the assay is half-maximal – is 12.6 µM [falling, partial curve].
The result for `COC(=O)c1ccc(CSc2nnc3n(Cc4ccccc4OC)c(=O)c4ccccc4n23)o1` reads 39.8 µM [rising, single point] [measured here: IkB-luc green channel]; that for `COc1cccc(C(=O)Nc2ccc3c(c2)CCCN3C(=O)c2cccs2)c1OC`, 31.6 µM [falling, single point]; that for `CCc1ccc(-n2c(=O)c3cccnc3n2CC(=O)N(CC)c2cccc(C)c2)cc1`, 39.8 µM [falling, single point].
The result for `CCOc1ccc(Nc2c(S(=O)(=O)c3ccc(C)cc3)cnc3ccccc23)cc1` reads 0.2 µM [falling, full curve]; that for `CN1C(=O)CSc2ccc(NC(=O)Nc3ccccn3)cc21`, 12.6 µM [falling, partial curve].
Consider `COc1cccc(Cn2c(SCc3ccc(C(=O)N4CCC(C)CC4)cc3)nc3ccncc32)c1`, for which the AC50 is 20 µM [falling, single point].
The result for `CCCCCCCC[N+](CCCCCCCC)(CCCCCCCC)CCCCCCCC` reads 1.58 µM [falling, full curve]; that for `COc1cc(NC(=O)CCCSc2nc(-c3ccco3)cc(C(F)(F)F)n2)cc(OC)c1OC`, 25.1 µM [falling, single point]; that for `CC(C)(C)OC(=O)N1CCC(c2c(C(=O)NCCN3CCOCC3)cnn2-c2ccccc2)CC1`, 12.6 µM [falling, single point].
The figure for `CCOc1ccccc1N(CC(=O)NC1CCCC1)C(=O)CCC(=O)Nc1cc(C)on1` is 7.94 µM [falling, full curve, poor fit].
The result for `CCOC(=O)c1c(Nc2ccccc2)nnc(-c2ccccc2)c1-c1ccccc1` reads 12.6 µM [falling, partial curve]; that for `COc1ccccc1NC(=O)Oc1ccc(NC(=O)c2ccco2)cc1`, 12.6 µM [falling, partial curve]; that for `COC(=O)CNC(c1ccccc1)c1cc(Br)ccc1NC(=O)c1cc(OC)c(OC)c(OC)c1` (configuration not stated), 5.01 µM [falling, partial curve].
For `CNC(=O)c1ccc(NC(=O)c2nsc3ccccc23)cc1`, the AC50 was 0.0501 µM [falling, full curve].
The result for `Cc1ccc(-c2csc(=Nc3ccccc3)n2CCCO)cc1` reads 25.1 µM [falling, single point]; that for `COc1ccc2c(c1)c(N1CCCC1=O)c(C(=O)Nc1ccc(Cl)cc1C)n2C`, 25.1 µM [falling, partial curve].
